Data from PubChem BioAssay AID1487 (National Center for Advancing Translational Sciences (NCATS), 2009).
The other results are listed elsewhere or left out. Further columns of the screen follow, without active or inactive calls. Most of these compounds were active or inconclusive in the main read-out, so they are no random draw. Words in brackets tell the shape of the fitted curve; partial curves, single points and poor fits give uncertain potencies.

Experiment: qHTS Assay for Modulators of Lamin A Splicing
Details: HeLa LMNA splicing GFP/RFP minigene ratio, 48 h
Outline: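 S3 HeLa stable clones carrying a lamin A-EGFP splicing minigene plus DsRed2 were seeded at 600 cells/well in Opti-MEM with 2% FBS, pin-dosed and incubated 48 h at 37°C. Acumen cytometry (488 nm) gave the GFP/RFP total-intensity ratio.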

[1] = measured here: GFP splicing reporter channel
[2] = measured here: RFP viability control channel

| Compound | AC50 [1] | AC50 [2] |
| --- | --- | --- |
| COc1ccc(/C(C)=N/NC(=S)NCCc2ccccc2)cc1 | 2 µM [falling, partial curve, poor fit] | 35.5 µM [rising, single point] |
| COc1ccc(CNc2c(CO)cnc3c2cnn3C)cc1 | 0.282 µM [rising, full curve] | 0.282 µM [rising, partial curve] |
| Cc1ccc(/C=C2/NC(=O)N(c3ccccc3)C2=O)o1 | 11.2 µM [falling, single point] | 0.0316 µM [falling, single point] |
| CSc1ccc(CN2C(=O)NC3(CCCCC3)C2=O)cc1 |  | 0.126 µM [rising, full curve, poor fit] |
| CC1CC(C)CN(C(=O)CCc2ccccc2)C1 (configuration not stated) | 11.2 µM [rising, partial curve, poor fit] |  |
| CCn1ncc(Cl)c1C(=O)Nc1cc([N+](=O)[O-])ccc1OC |  | 0.891 µM [rising, partial curve, poor fit] |
| COc1ccc(O[C@H]2C=C[C@@H](c3ccccc3)O[C@@H]2CO/N=C(\C)CCN2CCc3nc(-c4ccccc4)c(-c4ccccc4)cc3C2)cc1 | 11.2 µM [rising, single point] | 14.1 µM [rising, single point] |
| COc1ccccc1CN1CCC(CNC(=O)c2cnn(-c3ccc(C)c(C)c3)c2C2CCN(C(=O)OC(C)(C)C)CC2)CC1 | 17.8 µM [falling, partial curve, poor fit] | 11.2 µM [falling, partial curve, poor fit] |
| O=C(c1ccccc1)c1ccc(-c2ccc(O)cc2)cc1 |  | 6.31 µM [rising, single point] |
| Cc1ccc(N2CCN(c3nc4c(S(=O)(=O)c5ccc(C)c(C)c5)nnn4c4ccccc34)CC2)c(C)c1 |  | 0.02 µM [falling, full curve, poor fit] |
| Cc1cccc(OCC(=O)NC2CCCc3ccccc32)c1C (configuration not stated) |  | 35.5 µM [rising, single point] |
| CCC1CCCCN1C(=O)CSc1nnc(-c2ccc(Cl)s2)o1 (configuration not stated) |  | 31.6 µM [rising, single point] |
| CCOc1ccc(CN(C)CC(=O)Nc2cc(OC)c([N+](=O)[O-])cc2C)cc1 |  | 1.12 µM [rising, partial curve, poor fit] |
| CC(C)c1ccc2oc(=O)cc(CN3CCN(c4ccc(F)cc4)CC3)c2c1 | 20 µM [rising, single point] | 35.5 µM [rising, single point] |
| Cc1oc(=O)c(NC(=O)c2ccc(Cl)cc2)cc1C(=O)c1ccccc1 | 10 µM [falling, partial curve] | 5.62 µM [falling, single point] |
| O=C(c1cc([N+](=O)[O-])ccc1Cl)N1CCN(c2ccc(F)cc2)CC1 |  | 35.5 µM [rising, single point] |
| Cc1ccc(Nc2nc(N3CCOCC3)c3ccccc3n2)cc1 |  | 20 µM [rising, partial curve] |
| Cc1cncn1CCc1nc2c3ccccc3nc(SCC(=O)Nc3ccccc3F)n2n1 |  | 35.5 µM [falling, single point] |
| Cc1ccc(-c2nnc(Nc3cccc(C(F)(F)F)c3)c3ccccc23)cc1S(=O)(=O)N1CCOCC1 | 2.51 µM [rising, partial curve] | 1.41 µM [rising, partial curve] |
| O=S(=O)(c1ccc(NC(=S)N/N=C/c2ccc(N3CCOCC3)cc2)cc1)N1CCOCC1 | 10 µM [rising, partial curve] | 11.2 µM [rising, partial curve] |
| Cc1ccc(S(=O)(=O)Cn2nnnc2CN2CCCC3(CCCCC3)C2)cc1 |  | 15.8 µM [rising, partial curve] |
| COc1cc(S(=O)(=O)Nc2cccc(C)c2)ccc1N=Cc1c(C)[nH]n(-c2ccccc2)c1=O |  | 14.1 µM [rising, partial curve, poor fit] |
| O=S1(=O)CCC(NC(=S)NC2CCS(=O)(=O)C2)C1 (configuration not stated) | 0.0224 µM [falling, full curve, poor fit] |  |
| Cc1ccc(Nc2nc(N)nc(-c3oc4ccccc4c3C)n2)cc1 | 7.94 µM [falling, partial curve] | 7.94 µM [falling, partial curve, poor fit] |
| COC(=O)c1sc2cccc(F)c2c1S(=O)(=O)N1CCN(c2ccc(C)cc2C)CC1 |  | 0.00316 µM [falling, full curve, poor fit] |
| COc1ccccc1NC(=O)Cn1cncc1-c1ccc([N+](=O)[O-])cc1 |  | 15.8 µM [falling, partial curve, poor fit] |
| COc1ccc2[nH]c(=O)c(-c3noc(-c4ccccc4)n3)cc2c1 | 1.78 µM [rising, partial curve] |  |
| OC(CNCc1ccc(-c2ccccc2)cc1)c1ccccc1 (configuration not stated) |  | 11.2 µM [rising, partial curve] |

| Compound | AC50 [1] | AC50 [2] |
| --- | --- | --- |
| CCn1c(=O)cc(SCC(=O)N2CCCCC2)c2ccccc21 |  | 3.98 µM [rising, full curve, poor fit] |
| CCCNC(=O)CSc1nc2ccccc2c(=O)n1CCC | 2.82 µM [falling, partial curve, poor fit] |  |
| C=CCn1c(N)c(C(=O)Nc2ccc(C)c(C)c2)c2nc3ccccc3nc21 | 1 µM [falling, single point] | 0.126 µM [falling, single point] |
| CN(C)c1cc[n+](Cc2ccccc2)cc1 | 11.2 µM [rising, partial curve] | 14.1 µM [rising, partial curve] |
| O=c1c(-c2ccc(O)cc2)coc2cc(O)ccc12 |  | 0.00501 µM [falling, full curve, poor fit] |
| Cc1ccc(C(=O)CC(=O)c2cccc(F)c2)c(O)c1 |  | 12.6 µM [rising, single point] |
| O=C(CCCN1C(=O)/C(=C\c2cccs2)SC1=S)Nc1ccccn1 | 2.82 µM [falling, single point] | 2.82 µM [falling, partial curve, poor fit] |
| CCOC(=O)N1CCN(C(=O)COc2cccc3c2CCN(Cc2ccccc2F)C3=O)CC1 | 11.2 µM [rising, partial curve, poor fit] | 31.6 µM [rising, single point] |
| Cn1cc(Cl)c(C(=O)NNC(=S)Nc2cccc(Cl)c2)n1 | 3.16 µM [falling, full curve, poor fit] | 3.55 µM [falling, partial curve, poor fit] |
| O=[N+]([O-])c1cc(C(F)(F)F)ccc1NCCc1c[nH]c2ccc(O)cc12 |  | 12.6 µM [rising, single point] |
| CCOc1ccccc1N1CCN(CC(=O)Nc2cc(C)on2)CC1 |  | 35.5 µM [rising, single point] |
| O=[N+]([O-])c1cc(S(=O)(=O)Nc2ccccc2)ccc1NCc1cccnc1 |  | 14.1 µM [rising, partial curve, poor fit] |
| O=C(CCS(=O)(=O)c1ccccc1)Nc1nccs1 |  | 12.6 µM [rising, partial curve] |
| C=CCOc1cccc(C2C(C(=O)c3ccc(C)o3)=C(O)C(=O)N2c2nccs2)c1 (configuration not stated) |  | 12.6 µM [rising, single point] |
| COc1ccc(C2C(CC(=O)O)=C(O)C(=O)N2c2ccccc2)cc1 (configuration not stated) | 35.5 µM [rising, single point] |  |
| O=C(Nc1ccccc1)N1CCN(c2ccc(C(F)(F)F)cn2)CC1 |  | 11.2 µM [rising, single point] |
| O=C(CSc1nnc(-c2ccc(Br)cc2)n1-c1ccccc1)c1ccccc1 | 2 µM [falling, full curve, poor fit] | 15.8 µM [falling, partial curve, poor fit] |
| O=C(N/N=C/c1ccc(C(=O)O)cc1)C1=NNC(c2ccccc2)(c2ccccc2)C1 | 0.0355 µM [rising, full curve, poor fit] |  |
| Cc1cc(NC(=O)CSc2nc(CCC3CCCC3)nc3ccccc23)no1 | 22.4 µM [falling, single point] |  |
| COc1ccc(C(=O)NCC(c2ccc3c(c2)OCO3)N2CCN(c3ccc(F)cc3)CC2)cc1 (configuration not stated) | 31.6 µM [falling, single point] |  |
| Cc1ccc(-n2c(SCC(=O)NCC3CCCO3)nc3n[nH]c(C)c3c2=N)cc1Cl (configuration not stated) |  | 12.6 µM [rising, single point] |
| COc1ccc(NC(=O)CSc2nccn2Cc2ccco2)c(OC)c1 |  | 10 µM [falling, partial curve, poor fit] |
| CCOC(=O)c1cc(-c2ccc(OC)cc2)n(CCC(=O)Nc2nc3ccc(OCC)cc3s2)c1C |  | 10 µM [falling, partial curve] |
| CCOC(=O)c1c(C)sc(-c2c(-c3ccc(OC)c(F)c3)[nH]c3[nH]c(=O)[nH]c(=O)c23)c1O | 0.282 µM [rising, full curve, poor fit] |  |
| CCN(CC)C(=O)CSc1nc(-c2ccccc2)ccc1C#N |  | 35.5 µM [falling, single point] |
| Cc1cc(N/N=C/c2ccc(O)c(C)c2O)nc(-c2ccccc2O)n1 |  | 14.1 µM [rising, partial curve] |
| Cc1cccc(C)c1NC(=O)CC(NCCc1ccccc1)C(=O)O (configuration not stated) | 5.01 µM [rising, full curve, poor fit] | 6.31 µM [rising, full curve, poor fit] |

3 successive records from above, for reference:

| Compound | AC50 [1] | AC50 [2] |
| --- | --- | --- |
| Cc1ccc(Nc2nc(N3CCOCC3)c3ccccc3n2)cc1 |  | 20 µM [rising, partial curve] |
| Cc1cncn1CCc1nc2c3ccccc3nc(SCC(=O)Nc3ccccc3F)n2n1 |  | 35.5 µM [falling, single point] |
| Cc1ccc(-c2nnc(Nc3cccc(C(F)(F)F)c3)c3ccccc23)cc1S(=O)(=O)N1CCOCC1 | 2.51 µM [rising, partial curve] | 1.41 µM [rising, partial curve] |
